Laboratory results: patent US20260256923
The exact form of at least one protein or probe is not confirmed. At least one result comes from cells or an extract, where the contact may be indirect. A negative result means that nothing was seen under these conditions. For some of these results: A weaker result is weaker than the reference pair of the same experiment.

Sequences of proteins named here, by UniProt entry; tags and fusion partners are left off. A change or cut given only in a name is not applied to a line headed by its entry. Residues count along the entry.
UniProt P19338, 2-710: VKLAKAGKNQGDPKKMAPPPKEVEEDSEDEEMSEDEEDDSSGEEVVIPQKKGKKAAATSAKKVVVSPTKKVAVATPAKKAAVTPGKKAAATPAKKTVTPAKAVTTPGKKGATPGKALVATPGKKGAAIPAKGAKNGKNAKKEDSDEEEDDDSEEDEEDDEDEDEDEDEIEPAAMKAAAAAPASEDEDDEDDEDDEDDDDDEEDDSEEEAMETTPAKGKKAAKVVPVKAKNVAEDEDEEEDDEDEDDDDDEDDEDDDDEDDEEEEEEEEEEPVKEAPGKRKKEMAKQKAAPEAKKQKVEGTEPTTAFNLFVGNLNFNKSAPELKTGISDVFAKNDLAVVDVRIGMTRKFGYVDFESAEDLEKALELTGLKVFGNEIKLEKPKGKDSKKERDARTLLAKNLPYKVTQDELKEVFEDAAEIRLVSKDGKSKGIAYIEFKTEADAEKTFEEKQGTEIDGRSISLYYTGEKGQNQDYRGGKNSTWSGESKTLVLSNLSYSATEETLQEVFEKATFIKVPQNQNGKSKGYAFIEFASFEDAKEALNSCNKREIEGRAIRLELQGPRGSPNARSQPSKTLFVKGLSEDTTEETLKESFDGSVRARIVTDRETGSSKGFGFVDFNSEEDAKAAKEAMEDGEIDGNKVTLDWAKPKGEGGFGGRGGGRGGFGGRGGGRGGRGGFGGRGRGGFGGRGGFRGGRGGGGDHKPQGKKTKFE
UniProt Q00987: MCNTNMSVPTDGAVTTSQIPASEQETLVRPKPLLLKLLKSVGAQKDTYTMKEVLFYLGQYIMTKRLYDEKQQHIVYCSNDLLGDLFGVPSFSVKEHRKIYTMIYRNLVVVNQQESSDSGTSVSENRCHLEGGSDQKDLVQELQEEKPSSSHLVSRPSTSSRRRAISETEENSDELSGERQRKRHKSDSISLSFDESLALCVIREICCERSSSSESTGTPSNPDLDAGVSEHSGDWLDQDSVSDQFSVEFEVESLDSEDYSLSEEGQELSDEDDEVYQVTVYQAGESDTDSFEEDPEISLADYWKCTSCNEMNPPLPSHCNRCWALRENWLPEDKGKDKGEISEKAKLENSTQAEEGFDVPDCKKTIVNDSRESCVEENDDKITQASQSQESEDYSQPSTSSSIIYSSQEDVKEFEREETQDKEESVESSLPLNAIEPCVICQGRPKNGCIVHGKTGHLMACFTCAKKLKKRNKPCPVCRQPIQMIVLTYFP

Tests used:
[1] = target: Nucleolin (NCL), endogenous (Homo sapiens) (UniProt P19338); assay: pull-down; conditions: HeLa lysate, protein in an extract, protein details: HeLa cell lysate, label: 5'-biotin, single-stranded DNA
[2] = target: MDM2, endogenous (Homo sapiens) (UniProt Q00987); assay: pull-down; conditions: HeLa lysate; protein in an extract; protein details: HeLa cell lysate; label: 5'-biotin; single-stranded DNA

| Sequence | binding result ([1]; 0-20 uM, 4 C) | binding result [2] | binding result ([1]; captured only at high concentration) |
| --- | --- | --- | --- |
| CCTCCTCCTCCTTCTCCTCCTCCTCC [CRO] | no binding | no binding | – |
| AGATTAGGGTGAGGGTGA [iSN04] | – | no binding | binds more weakly |
